PubChem BioAssay AID1224826, NIAID, 2016
Assay: 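Knock-downs that raise or lower Tnf reporter signal after endotoxin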 (primary screen). Cell system: RAW264.7 G9 macrophages from mouse bearing reporters for p65 (GFP) and the Tnf promoter (mCherry). Reagent: siRNA pool against mouse genes, 100 nM. Time to read-out: 16 h of LPS stimulation, after 2 days of siRNA transfection. Conditions: bacterial lipopolysaccharide (Salmonella minnesota R595), 10 ng/ml. Measured: 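Imaged Tnf reporter mCherry in nuclei, minus background, normalised per plate to the median and expressed as robust z-scores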. Reading the numbers: Tnf reporter robust z-score: higher = stronger Tnf promoter reporter signal after LPS. Hit rule: 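Called active when robust z-score is at most -1.3, matching the median of the Tlr4 knock-down control, or over 3; control wells and wells with under 50 cells never active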. Calls: active = Tnf reporter clearly lowered or raised; inactive = no clear change in Tnf reporter.
The whole screen tested about 17,000 reagents; shown is a random part of them. About 1,110 of all reagents (6.6%) were called active. 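Active means lowered or raised reporter signal; replicate intensities are raw and not normalised per plate.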 Entries without a mark were called inactive. Not all columns of the deposit are shown. No sequences are given here.

Epha10 [SID315478814] gave Tnf reporter robust z-score 0.23; fewer than 50 cells in well enough cells in well. Rnf220 [SID315472618] showed Tnf reporter robust z-score -1.27; fewer than 50 cells in well enough cells in well. With knock-down of H2bc27 [SID315475561], the screen gave Tnf reporter robust z-score -1.64 (active); fewer than 50 cells in well enough cells in well. After knock-down of Zbtb5 [SID315478764] the results were Tnf reporter robust z-score 0.56; fewer than 50 cells in well enough cells in well. Silencing of Or2y13 [SID315481952] resulted in: Tnf reporter robust z-score -1.19; fewer than 50 cells in well enough cells in well. After knock-down of Tyw2 [SID315473476], the screen gave Tnf reporter robust z-score 0.45; fewer than 50 cells in well enough cells in well.

With knock-down of D630023F18Rik [SID315476125], the screen gave Tnf reporter robust z-score 1.68; fewer than 50 cells in well enough cells in well. Against Epha7 [SID315466526], the entry reads Tnf reporter robust z-score -0.61; fewer than 50 cells in well enough cells in well. Nop56 [SID315472858] gave Tnf reporter robust z-score -0.55; fewer than 50 cells in well enough cells in well. For Bco2 [SID315477220] the deposit lists Tnf reporter robust z-score 1.17; fewer than 50 cells in well enough cells in well. Against Ecsit [SID315470494], the entry reads Tnf reporter robust z-score 1.85; fewer than 50 cells in well enough cells in well. After knock-down of Tspan4 [SID315472108], the screen gave Tnf reporter robust z-score 0.09; fewer than 50 cells in well enough cells in well.

With knock-down of Csf3 [SID315466162] the results were Tnf reporter robust z-score 0.37; fewer than 50 cells in well enough cells in well. After knock-down of Tmcc3 [SID315481186], the screen gave Tnf reporter robust z-score -0.63; fewer than 50 cells in well enough cells in well. For Ndufaf7 [SID315474765], the entry reads Tnf reporter robust z-score 0.38; fewer than 50 cells in well enough cells in well. After knock-down of Cebpe [SID315476931], the record shows Tnf reporter robust z-score 1.06; fewer than 50 cells in well enough cells in well. Ptpn12 [SID315468796] scored Tnf reporter robust z-score -1.39 (active); fewer than 50 cells in well enough cells in well. With knock-down of Piga [SID315468505], the screen gave Tnf reporter robust z-score -0.3; fewer than 50 cells in well enough cells in well.

For Setmar [SID315475031] the deposit lists Tnf reporter robust z-score 0.17; fewer than 50 cells in well enough cells in well. After knock-down of Gnpnat1 [SID315471194] the results were Tnf reporter robust z-score -0.3; fewer than 50 cells in well enough cells in well. Mapk6 [SID315470834] showed Tnf reporter robust z-score -0.91; fewer than 50 cells in well enough cells in well.
